Measurements reported in PubChem BioAssay (Tox21).
The inconclusive results got no clear call from the source; some entries with a clear call stand among them for comparison. Where the call is inconclusive, the potency comes from a doubtful curve fit. The source made the active and inactive calls. The call rests on the fitted dose curve. Non-standard residues stand in square brackets, D forms with d. Residues, ends and D or L forms follow the SMILES beside them. pGlu = O=C1CC[C@@H](C(=O)O)N1

Sequences of proteins named here, by UniProt entry; tags and fusion partners are left off. A change or cut given only in a name is not applied to a line headed by its entry.
UniProt P19793: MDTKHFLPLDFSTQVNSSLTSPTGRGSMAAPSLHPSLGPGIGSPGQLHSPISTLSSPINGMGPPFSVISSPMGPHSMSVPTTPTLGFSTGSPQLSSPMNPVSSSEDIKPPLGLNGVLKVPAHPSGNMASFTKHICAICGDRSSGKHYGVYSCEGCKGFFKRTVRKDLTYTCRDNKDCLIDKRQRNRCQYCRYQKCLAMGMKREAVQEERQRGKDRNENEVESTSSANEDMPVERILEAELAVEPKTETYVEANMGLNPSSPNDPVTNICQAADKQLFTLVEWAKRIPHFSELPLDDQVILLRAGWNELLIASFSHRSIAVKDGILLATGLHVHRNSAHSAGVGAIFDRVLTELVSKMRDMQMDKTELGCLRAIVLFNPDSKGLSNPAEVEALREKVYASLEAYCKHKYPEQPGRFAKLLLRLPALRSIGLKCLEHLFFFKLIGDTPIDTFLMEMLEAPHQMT

molecular target: Retinoic acid receptor RXR-alpha (Homo sapiens) (UniProt P19793); assay: qHTS assay to identify small molecule agonists of the RXR signaling pathway (AID 1159527); conditions: HEK293T RXRa-UAS-bla, beta-lactamase ratio, 16 h; activation: at 76.8 µM (top of the series) unless noted; further: nearly all actives have a fitted effect of over 35% in size
How it was run: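 Agonist-mode beta-lactamase reporter assay: HEK 293T RXR-alpha-UAS-bla cells treated 16 hr at 37 C with compounds, 9-cis retinoic acid as positive control. LiveBLAzer FRET substrate, 405 nm excitation, 460/530 nm emission.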
On the % scale 0 is the no-effect control and ±100 the full control effect; potency means the concentration at half of the fitted maximal effect.

**Q.** For `O=C(OCCCCCOC(=O)c1ccccc1)c1ccccc1`, which Potency is on record?
**A.** inconclusive: 38.9 µM

**Q.** `O=S(=O)(O)c1cccc(S(=O)(=O)O)c1` was tested. Which “activation” value did it give?
**A.** inactive: -0.258%

**Q.** How did the “activation” value turn out when `Cc1ccc(C#N)cc1` was run?
**A.** inactive: 11.7%

**Q.** `O=C(O)c1c(O)c(-c2ccccc2)nc2ccccc12` was tested. Which Potency did it give?
**A.** inconclusive: 15.1 µM [activator, partial curve, poor fit]

**Q.** For `O=C(O)c1cc(C(=O)O)c(C(=O)O)cc1C(=O)O`, which activation is on record?
**A.** inconclusive: 10.4%

**Q.** With `CCC(C(=O)O)c1ccc(N2Cc3ccccc3C2=O)cc1` (stereo not drawn) as the molecule, how does the Potency read?
**A.** inconclusive: 2.39 µM [fluorescent, full curve, poor fit]

**Q.** For `CC(C)(C)c1ccc(-c2ccc(C(C)(C)C)cc2)cc1`, which “activation” value is on record?
**A.** inactive: 10.8%

**Q.** With `Cc1ccc(C(C)NC(=O)[C@@H](NC(=O)OC(C)C)C(C)C)cc1` (stereo partly drawn) as the molecule, how does the “activation” value read?
**A.** inactive: -16.3%

**Q.** `O=C1C=CCCC1` was tested. Which Potency did it give?
**A.** inconclusive: 22.1 µM [activator, partial curve, poor fit]

**Q.** Which Potency does the source give for `CCC(=O)/C=C/c1ccc(OC)cc1` here?
**A.** inconclusive: 49 µM [inhibitor, partial curve]

**Q.** How did the activation turn out when `CCCCc1ccc2nc(NC(=O)OC)[nH]c2c1` was run?
**A.** inconclusive: -27.2% [at 35.3 µM]

**Q.** How did the “activation” value turn out when `CCNC(=O)[C@@H]1CCCN1C(=O)[C@H](CCCN=C(N)N)NC(=O)[C@H](CC(C)C)NC(=O)CNC(=O)[C@H](Cc1ccc(O)cc1)NC(=O)[C@H](CO)NC(=O)[C@H](Cc1c[nH]c2ccccc12)NC(=O)[C@H](Cc1cnc[nH]1)NC(=O)[C@@H]1CCC(=O)N1` ([pGlu]HWSYGLRP-NHEt) was run?
**A.** inactive: 4.44% [at 35.3 µM]

**Q.** With `CCOC(=O)C(C)Oc1ccc(Oc2nc3ccc(Cl)cc3o2)cc1` (stereo not drawn) as the molecule, how does the activation read?
**A.** inconclusive: -33.6%
